Where a name gives a salt, the structure may show the parent alone. This is one part of the list. The data scatter; read single values as rough.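 Yeast growth was measured as optical density at 600 nm. Two-hybrid strains grew without histidine, so growth depended on Pex3–Pex19 binding. A compound was trypanosome-selective if it reduced growth of the trypanosome-pair strain by over 65% and of the human-pair strain by under 65%.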
System: T. brucei Pex3-Pex19 interaction (yeast two-hybrid)
Assay: growth inhibition of yeast two-hybrid strain reporting TbPex3-TbPex19 interaction, relative to DMSO; higher = stronger inhibition of T. brucei Pex3-Pex19 interaction / growth
Conditions: 100 µM; 24 h

Compound	growth inhibition
O=C(O)C1=CCNCC1 [Isoguvacine hydrochloride]	47.3%
COc1ccc(CCn2nnnc2C2(c3ccc(C)cc3)CC2)cc1 [Mephetyl tetrazole]	45.9%
O=C(CCNNC(=O)c1ccncc1)NCc1ccccc1 [Nialamide]	53.1%
O=Nc1ccc2oc(=O)ccc2c1 [6-Nitroso-1,2-benzopyrone]	83.5%
O=c1[nH]c(=S)[nH]c(-c2ccccc2)c1Cc1c(O)ccc2ccccc12 [Cambinol]	42.3%

— the supplement of paper PMC8326762, “A Small Molecule Inhibitor of Pex3–Pex19 Interaction Disrupts Glycosome Biogenesis and Causes Lethality in Trypanosoma brucei” (Frontiers in Cell and Developmental Biology, 2021)
